Out of some 300,000 compounds screened, about 3,700 (1.2%) were called active. This list was built around the results that the source calls inconclusive (neither active nor inactive); the mix of calls is not that of the screen. The call rests on the fitted dose curve; tested in HEK293 cells. A potency beside an inconclusive call is a rough fit, not a confirmed value.
Assay: qHTS for Inhibitors of binding or entry into cells for Lassa Virus; further: nearly all actives have a fitted effect of over 50% in size
Conditions: Lassa virus pseudotype entry inhibition, cell reporter; series mostly up to 37.9 µM
Potency means the concentration at half of the fitted maximal effect.

Which Potency does the source give for `CC(=O)Nc1cccc(Oc2cnc3ccccc3n2)c1` here?
Its Potency is “inactive”.

For `CCOC(=O)C1CCN(C(c2cccnc2)c2c(NC(=O)c3ccco3)sc(C)c2C)CC1` (stereo not drawn), which Potency is on record?
Its Potency is inconclusive: 14.1 µM [inhibitor, partial curve, poor fit].

Which Potency does the source give for `COc1ccc(S(=O)(=O)N2N=C(c3ccc(NS(C)(=O)=O)cc3)CC2c2ccco2)cc1` (stereo not drawn) here?
The Potency was active: 0.651 µM.

With `Nc1nnc(SCC(=O)Nc2cccc(Cl)c2)s1` as the compound, how does the Potency read?
The Potency was inconclusive: 0.794 µM [activator, single point].

With `COc1ccccc1C(=O)NCCC(=O)N1CCCC(C)C1` (stereo not drawn) as the compound, how does the Potency read?
Its Potency is inconclusive: 35.5 µM [activator, single point].

With `COc1cc(NC(=O)CN(c2ccc(C)cc2)S(=O)(=O)c2c(C)noc2C)cc(OC)c1` as the compound, how does the Potency read?
The Potency was inconclusive: 35.5 µM [inhibitor, single point].

Which Potency does the source give for `COc1ccc(Nc2cc(C(=O)NCCCN(C)C3CCCCC3)c3ccccc3n2)cc1` here?
The Potency was inconclusive: 31.6 µM [inhibitor, single point].

With `O=C(CCc1ccccc1)Nc1ccccc1[N+](=O)[O-]` as the compound, how does the Potency read?
The Potency was inconclusive: 5.62 µM [activator, single point].

Which Potency does the source give for `CC(C)NC(=O)CCS(=O)(=O)c1cccc2nonc12` here?
Its Potency is inconclusive: 0.058 µM [inhibitor, partial curve, poor fit].

For `Cc1ccc(CN(Cc2cccnc2)C(=O)CN2C(=O)COc3ccccc32)o1`, which Potency is on record?
Its Potency is “inactive”.

For `CCCc1ccc2oc(C(=O)N3CCCC3)c(C)c2c1`, which Potency is on record?
Its Potency is inconclusive: 3.16 µM [inhibitor, single point].

For `O=C(Nc1ccc(F)c(Cl)c1)N1CCCCCC1`, which Potency is on record?
Its Potency is inconclusive: 7.08 µM [activator, full curve, poor fit].

For `O=C(Nc1ccc(N2CCCCC2)cc1)c1ccc([N+](=O)[O-])o1`, which Potency is on record?
Its Potency is inconclusive: 35.5 µM [inhibitor, single point].

Which Potency does the source give for `CSc1ccc(/C=N/n2nnnc2N)cc1` here?
The Potency was “inactive”.

For `COc1ccccc1/C=C(\NC(=O)c1ccc(OC)c(OC)c1)C(=O)Nc1cccc([N+](=O)[O-])c1`, which Potency is on record?
The Potency was inconclusive: 35.5 µM [activator, partial curve, poor fit].

For `CCOc1ccccc1C1Nc2ccccc2-c2nnc(SCc3ccccc3)nc2O1` (stereo not drawn), which Potency is on record?
The Potency was “inactive”.

Which Potency does the source give for `NNC(=O)CSc1nnc(-c2ccccc2)n1-c1ccccc1` here?
Its Potency is inconclusive: 11.2 µM [activator, partial curve, poor fit].

Which Potency does the source give for `CN(C)c1ccc(/C=C2\CCC/C(=C\c3ccccc3)C2=O)cc1` here?
Its Potency is inconclusive: 35.5 µM [inhibitor, single point].

With `COc1ccc(NC(=O)c2cc3c(-c4ccc(OC)c(OC)c4)nn(C)c3s2)cc1OC` as the compound, how does the Potency read?
The Potency was active: 13 µM.

With `CCOC(=O)c1c(NC(=O)c2nc(SCC)ncc2Cl)sc(C(C)=O)c1C` as the compound, how does the Potency read?
Its Potency is inconclusive: 35.5 µM [activator, single point].

For `C/C(=N\N=C1/NC(=O)C(C)S1)c1ccc([N+](=O)[O-])cc1` (stereo not drawn), which Potency is on record?
The Potency was “inactive”.

Which Potency does the source give for `CC(C)C(C)NC(=O)COC(=O)/C=C/c1ccc(S(=O)(=O)N2CCc3ccccc32)cc1` (stereo not drawn) here?
Its Potency is inconclusive: 8.91 µM [inhibitor, partial curve, poor fit].

For `CC(=O)c1ccc(N2CCN(C(=O)CCCn3c(=S)[nH]c4cc5c(cc4c3=O)OCO5)CC2)cc1`, which Potency is on record?
Its Potency is inconclusive: 23.1 µM [inhibitor, single point].

For `CCCOc1ccccc1C1CC(=O)Nc2cc3c(cc21)OCO3` (stereo not drawn), which Potency is on record?
The Potency was inconclusive: 10 µM [inhibitor, partial curve].

Which Potency does the source give for `Cc1oc2ccc(OC(C(=O)O)c3ccccc3)cc2c1C(=O)O` (stereo not drawn) here?
The Potency was inconclusive: 6.31 µM [inhibitor, single point].

Which Potency does the source give for `Cc1noc(C)c1COc1ccccc1C(=O)NCCc1ccc(F)cc1` here?
The Potency was “inactive”.

Which Potency does the source give for `CCn1c(SCC(=O)Nc2ccc(OCc3ccccc3)cc2)nnc1-c1ccco1` here?
The Potency was inconclusive: 29.1 µM [inhibitor, single point].

With `Cc1ccccc1NC(=O)Cn1c(SCC(=O)Nc2ccc(F)cc2)nc2ccccc21` as the compound, how does the Potency read?
Its Potency is “inactive”.

Which Potency does the source give for `COc1ccc(C(=O)N2N=C(c3cccc(OC)c3)CC2(O)C(F)(F)F)cc1` (stereo not drawn) here?
The Potency was inconclusive: 14.1 µM [inhibitor, partial curve, poor fit].

With `COc1cc(C(C)=O)ccc1OCCN1CCC(Cc2ccccc2)CC1` as the compound, how does the Potency read?
The Potency was inconclusive: 28.2 µM [inhibitor, partial curve, poor fit].

Which Potency does the source give for `COc1ccc(NC(=O)CC2C(=O)N(c3ccc(OC)cc3)C(=O)N2CCc2cccs2)cc1` (stereo not drawn) here?
The Potency was active: 9.2 µM.

Which Potency does the source give for `COc1ccc(/C=N/NC(=O)c2cccnc2)cc1CSc1ccccn1` here?
Its Potency is “inactive”.

For `S=C(NC1CCCCC1)N1CCOCCOCCN(C(=S)NC2CCCCC2)CCOCC1`, which Potency is on record?
Its Potency is “inactive”.

Which Potency does the source give for `O=C(c1ccccc1)c1cccc(NC(=O)c2ccc(Br)o2)c1` here?
The Potency was inconclusive: 35.5 µM [inhibitor, single point].

Which Potency does the source give for `O=C(NC(=S)Nc1ccccn1)c1cncc(Br)c1` here?
Its Potency is inconclusive: 29.1 µM [activator, single point].

With `CCC1CN2CCc3cc(OC)c(OC)cc3C2CC1CC1NCCc2c1[nH]c1ccc(O)cc21` (stereo not drawn) as the compound, how does the Potency read?
The Potency was active: 0.501 µM.

For `O=C(Cn1c(=O)n(Cc2ccco2)c(=O)c2ccccc21)Nc1ccc(Cl)cc1Cl`, which Potency is on record?
Its Potency is inconclusive: 35.5 µM [activator, single point].

Which Potency does the source give for `C=CCNc1nc(N)c([N+](=O)[O-])c(Nc2ccccc2OC)n1` here?
Its Potency is “inactive”.

For `CCOC(=O)N1CCN(C(=O)Cc2ccc(C)cc2)CC1`, which Potency is on record?
Its Potency is inconclusive: 4.61 µM [inhibitor, single point].

With `c1ccc(N2CCN(c3ccccc3)C2c2cccnc2)cc1` as the compound, how does the Potency read?
The Potency was “inactive”.

With `Cc1ccc(NC(=O)CN(C)C(=O)c2cccc(S(=O)(=O)NCc3ccccc3)c2)cc1` as the compound, how does the Potency read?
The Potency was “inactive”.

Which Potency does the source give for `CC(C)Cn1c(N)c(S(=O)(=O)c2cccs2)c2nc3ccccc3nc21` here?
The Potency was inconclusive: 35.5 µM [inhibitor, single point].

Which Potency does the source give for `Cc1ccc(NC(=O)C2CCCN(c3nnc(C)c4c(C)n(-c5ccccc5)nc34)C2)c(Cl)c1` (stereo not drawn) here?
Its Potency is inconclusive: 6.31 µM [inhibitor, single point].

With `Fc1ccc(C2CC(c3ccccc3)n3ncnc3N2)cc1` (stereo not drawn) as the compound, how does the Potency read?
The Potency was “inactive”.

With `CCC(=O)N1CCc2cc(Br)cc(S(=O)(=O)CCC(=O)N3CCN(c4cccc(C(F)(F)F)c4)CC3)c21` as the compound, how does the Potency read?
The Potency was inconclusive: 35.5 µM [activator, single point].

For `O=c1c2ccccc2nc2c3ccccc3c3nncn3n12`, which Potency is on record?
The Potency was “inactive”.

Which Potency does the source give for `Cc1ccc(C2(C)NC(=O)N(CC(=O)Nc3nc(-c4ccccn4)cs3)C2=O)cc1` (stereo not drawn) here?
The Potency was inconclusive: 8.91 µM [inhibitor, partial curve, poor fit].

Which Potency does the source give for `CCOC(=O)c1c(NC(=O)CSc2c[nH]c3ccccc23)sc2c1CCC2` here?
Its Potency is inconclusive: 25.9 µM [inhibitor, single point].

With `COc1ccc(C(=O)OCc2cc(=O)n3nc(-c4cccs4)sc3n2)cc1` as the compound, how does the Potency read?
The Potency was “inactive”.

With `O=c1c2ccccc2oc2ncccc12` as the compound, how does the Potency read?
Its Potency is “inactive”.

For `CC(=O)c1cccc(NC(=O)/C=C/c2ccc([N+](=O)[O-])s2)c1`, which Potency is on record?
Its Potency is active: 7.08 µM.

Which Potency does the source give for `CCOc1ccccc1N(CC(=O)NCCSCc1ccco1)S(=O)(=O)c1ccccc1` here?
Its Potency is inconclusive: 22.4 µM [inhibitor, partial curve, poor fit].

For `c1ccc(CNCCCNCCCCNCCCNCc2ccccc2)cc1`, which Potency is on record?
Its Potency is inconclusive: 35.5 µM [inhibitor, single point].

With `CN(CC(=O)Nc1ccc(F)cc1)C(=O)CCc1nc2ccccc2c(=O)[nH]1` as the compound, how does the Potency read?
The Potency was inconclusive: 1.26 µM [inhibitor, single point].

Which Potency does the source give for `CCOc1ccccc1NC(=S)NC1CCCCC1` here?
Its Potency is inconclusive: 32.6 µM [inhibitor, single point].

For `Cc1ccc(S(=O)(=O)Cc2ccc(C(=O)N3CCN(c4cccc(C)c4C)CC3)o2)cc1`, which Potency is on record?
The Potency was inconclusive: 15.8 µM [inhibitor, partial curve, poor fit].

With `OCCNCc1c(OCc2ccc(Cl)cc2)ccc2ccccc12` as the compound, how does the Potency read?
Its Potency is inconclusive: 6.31 µM [inhibitor, partial curve, poor fit].

Which Potency does the source give for `O=C(NNC(=S)NC(=O)c1ccccc1)c1ccc(O)cc1` here?
The Potency was “inactive”.

Which Potency does the source give for `Cc1ccc(C(=O)Nc2ccc3c(c2)OCCO3)c(C)c1` here?
Its Potency is inconclusive: 1.41 µM [inhibitor, full curve, poor fit].

With `Cc1ccccc1CN1CCN(C(=O)c2cc(-c3ccncc3)nc3ccccc23)CC1` as the compound, how does the Potency read?
Its Potency is inconclusive: 11.2 µM [inhibitor, single point].

With `O=C(Nc1nnc(-c2cccnc2)o1)c1ccccc1Cl` as the compound, how does the Potency read?
The Potency was inconclusive: 5.62 µM [activator, single point].

For `Cc1ccc(NC(=O)CSc2nnc(COc3ccc(C#N)cc3)n2-c2ccccc2)cc1C`, which Potency is on record?
Its Potency is inconclusive: 20.6 µM [inhibitor, single point].

For `CN(c1ccc(C(=O)NCCSCc2ccccc2)cc1)S(=O)(=O)c1ccccc1`, which Potency is on record?
The Potency was inconclusive: 35.5 µM [inhibitor, single point].

With `S=C(Nc1ccc(Cl)c(Cl)c1)N1CCN(c2ccccn2)CC1` as the compound, how does the Potency read?
Its Potency is inconclusive: 12.6 µM [inhibitor, partial curve].

With `O=C(CSc1ncnc2c1oc1ccccc12)Nc1ccc2c(c1)OCCO2` as the compound, how does the Potency read?
The Potency was inconclusive: 14.6 µM [activator, partial curve, poor fit].

For `Fc1ccccc1N1CCN(c2cnc3ccccc3n2)CC1`, which Potency is on record?
The Potency was inconclusive: 12.6 µM [inhibitor, single point].

Which Potency does the source give for `O=C(NCCO)c1ccc2[nH]c3c(c2c1)CCCC3` here?
The Potency was inconclusive: 5.62 µM [activator, partial curve, poor fit].

Which Potency does the source give for `O=C1CN(S(=O)(=O)c2ccc(Cl)cc2C(F)(F)F)CCN1` here?
Its Potency is “inactive”.

Source: PubChem BioAssay AID540256 (National Center for Advancing Translational Sciences (NCATS), 2011)
